Data taken from PubChem BioAssay AID186 (DTP/NCI, 2004).
Shown are survivors of the treated group in tumour-free mice. Survivors were counted at the toxicity check, usually on the fifth day, unless a day is given; later deaths do not show. Schedule codes are those of the source, taken here to give the interval after Q, in days (D) or hours (H), and the number of doses after X. Some structures stand for samples that the source files as different forms (salt, stereo form or complex); doses refer to the form tested. Brackets with × stand for listed records that agree.

Test system: B6D2F1 mice, nontumored toxicity test, survival
Assay: NCI In Vivo Anticancer Drug Screen. Data for tumor model Nontumored Animals (Toxicity Test) in B6D2F1 (BDF1) mice

## O=C1c2ccccc2C(=O)c2c(NCCNCCO)ccc(NCCNCCO)c21
dose: 1.0 mg/kg/injection, schedule: Q03HX016 (ip), vehicle: acid diluted with saline
  survivor count: 8 of 8
dose: 1.0 mg/kg/injection, schedule: Q03HX024 (ip), vehicle: acid diluted with saline
  survivor count: 8 of 8
dose: 1.0 mg/kg/injection, schedule: Q03HX024 (ip), vehicle: saline
  survivor count: 8 of 8
dose: 2.0 mg/kg/injection, schedule: Q01DX009 (ip), vehicle: acid diluted with saline
  survivor count: 8 of 8
dose: 2.0 mg/kg/injection, schedule: Q01DX009 (ip), vehicle: saline
  survivor count: 8 of 8
dose: 2.0 mg/kg/injection, schedule: Q01DX009 (sc), vehicle: acid diluted with saline
  survivor count: 8 of 8
dose: 2.0 mg/kg/injection, schedule: Q03HX008 (ip), vehicle: acid diluted with saline
  survivor count: 8 of 8
dose: 2.0 mg/kg/injection, schedule: Q03HX008 (ip), vehicle: saline
  survivor count: 8 of 8
dose: 2.0 mg/kg/injection, schedule: Q03HX016 (ip), vehicle: acid diluted with saline
  survivor count: 8 of 8
dose: 2.0 mg/kg/injection, schedule: Q03HX024 (ip), vehicle: acid diluted with saline
  survivor count: 8 of 8
dose: 2.0 mg/kg/injection, schedule: Q03HX024 (ip), vehicle: saline
  survivor count: 8 of 8
dose: 3.12 mg/kg/injection, schedule: Q01DX009 (ip), vehicle: saline
  survivor count: 10 of 10 (2×)
dose: 4.0 mg/kg/injection, schedule: Q01DX005 (ip), vehicle: acid diluted with saline
  survivor count: 8 of 8
dose: 4.0 mg/kg/injection, schedule: Q01DX005 (ip), vehicle: saline
  survivor count: 8 of 8
dose: 4.0 mg/kg/injection, schedule: Q01DX005 (iv), vehicle: saline
  survivor count: 8 of 8
dose: 4.0 mg/kg/injection, schedule: Q01DX009 (ip), vehicle: acid diluted with saline
  survivor count: 8 of 8
dose: 4.0 mg/kg/injection, schedule: Q01DX009 (ip), vehicle: saline
  survivor count: 8 of 8
dose: 4.0 mg/kg/injection, schedule: Q01DX009 (sc), vehicle: acid diluted with saline
  survivor count: 8 of 8
dose: 4.0 mg/kg/injection, schedule: Q01DX009 (sc), vehicle: saline
  survivor count: 8 of 8
dose: 4.0 mg/kg/injection, schedule: Q03HX008 (ip), vehicle: acid diluted with saline
  survivor count: 8 of 8
dose: 4.0 mg/kg/injection, schedule: Q03HX008 (ip), vehicle: saline
  survivor count: 8 of 8
dose: 4.0 mg/kg/injection, schedule: Q03HX016 (ip), vehicle: acid diluted with saline
  survivor count: 8 of 8
dose: 4.0 mg/kg/injection, schedule: Q03HX024 (ip), vehicle: acid diluted with saline
  survivor count: 8 of 8
dose: 4.0 mg/kg/injection, schedule: Q03HX024 (ip), vehicle: saline
  survivor count: 8 of 8
dose: 6.25 mg/kg/injection, schedule: Q01DX009 (ip), vehicle: saline
  survivor count: 10 of 10 (2×)
dose: 8.0 mg/kg/injection, schedule: Q01DX001 (ip), vehicle: saline
  survivor count: 8 of 8
dose: 8.0 mg/kg/injection, schedule: Q01DX005 (ip), vehicle: acid diluted with saline
  survivor count: 8 of 8
dose: 8.0 mg/kg/injection, schedule: Q01DX005 (ip), vehicle: saline
  survivor count: 8 of 8
dose: 8.0 mg/kg/injection, schedule: Q01DX005 (iv), vehicle: saline
  survivor count: 8 of 8
dose: 8.0 mg/kg/injection, schedule: Q01DX009 (ip), vehicle: acid diluted with saline
  survivor count: 8 of 8
dose: 8.0 mg/kg/injection, schedule: Q01DX009 (ip), vehicle: saline
  survivor count: 8 of 8
dose: 8.0 mg/kg/injection, schedule: Q01DX009 (oral), vehicle: acid diluted with saline
  survivor count: 8 of 8
dose: 8.0 mg/kg/injection, schedule: Q01DX009 (sc), vehicle: acid diluted with saline
  survivor count: 8 of 8
dose: 8.0 mg/kg/injection, schedule: Q01DX009 (sc), vehicle: saline
  survivor count: 8 of 8
dose: 8.0 mg/kg/injection, schedule: Q03HX008 (ip), vehicle: acid diluted with saline
  survivor count: 8 of 8
dose: 8.0 mg/kg/injection, schedule: Q03HX008 (ip), vehicle: saline
  survivor count: 8 of 8
dose: 8.0 mg/kg/injection, schedule: Q03HX016 (ip), vehicle: acid diluted with saline
  survivor count: 8 of 8
dose: 8.0 mg/kg/injection, schedule: Q03HX024 (ip), vehicle: acid diluted with saline
  survivor count: 8 of 8
dose: 8.0 mg/kg/injection, schedule: Q03HX024 (ip), vehicle: saline
  survivor count: 8 of 8
dose: 8.0 mg/kg/injection, schedule: Q04DX003 (ip), vehicle: acid diluted with saline
  survivor count: 8 of 8
dose: 8.0 mg/kg/injection, schedule: Q04DX003 (ip), vehicle: saline
  survivor count: 8 of 8
dose: 8.0 mg/kg/injection, schedule: Q08DX002 (ip), vehicle: acid diluted with saline
  survivor count: 8 of 8
dose: 8.0 mg/kg/injection, schedule: Q08DX002 (ip), vehicle: saline
  survivor count: 8 of 8
dose: 12.5 mg/kg/injection, schedule: Q01DX009 (ip), vehicle: saline
  survivor count: 10 of 10 (2×)
dose: 16.0 mg/kg/injection, schedule: Q01DX001 (ip), vehicle: acid diluted with saline
  survivor count: 8 of 8
dose: 16.0 mg/kg/injection, schedule: Q01DX001 (ip), vehicle: saline
  survivor count: 8 of 8
dose: 16.0 mg/kg/injection, schedule: Q01DX001 (oral), vehicle: saline
  survivor count: 8 of 8
dose: 16.0 mg/kg/injection, schedule: Q01DX001 (sc), vehicle: acid diluted with saline
  survivor count: 8 of 8
dose: 16.0 mg/kg/injection, schedule: Q01DX005 (ip), vehicle: acid diluted with saline
  survivor count: 8 of 8
dose: 16.0 mg/kg/injection, schedule: Q01DX005 (ip), vehicle: saline
  survivor count: 8 of 8
dose: 16.0 mg/kg/injection, schedule: Q01DX005 (iv), vehicle: saline
  survivor count: 8 of 8
dose: 16.0 mg/kg/injection, schedule: Q01DX009 (ip), vehicle: acid diluted with saline
  survivor count: 8 of 8
dose: 16.0 mg/kg/injection, schedule: Q01DX009 (ip), vehicle: saline
  survivor count: 8 of 8
dose: 16.0 mg/kg/injection, schedule: Q01DX009 (oral), vehicle: acid diluted with saline
  survivor count: 8 of 8
dose: 16.0 mg/kg/injection, schedule: Q01DX009 (oral), vehicle: saline
  survivor count: 8 of 8
dose: 16.0 mg/kg/injection, schedule: Q01DX009 (sc), vehicle: acid diluted with saline
  survivor count: 8 of 8
dose: 16.0 mg/kg/injection, schedule: Q01DX009 (sc), vehicle: saline
  survivor count: 8 of 8
dose: 16.0 mg/kg/injection, schedule: Q03HX008 (ip), vehicle: acid diluted with saline
  survivor count: 8 of 8
dose: 16.0 mg/kg/injection, schedule: Q03HX008 (ip), vehicle: saline
  survivor count: 6 of 8
dose: 16.0 mg/kg/injection, schedule: Q03HX016 (ip), vehicle: acid diluted with saline
  survivor count: 7 of 8
dose: 16.0 mg/kg/injection, schedule: Q03HX024 (ip), vehicle: acid diluted with saline
  survivor count: 8 of 8
dose: 16.0 mg/kg/injection, schedule: Q03HX024 (ip), vehicle: saline
  survivor count: 8 of 8
dose: 16.0 mg/kg/injection, schedule: Q04DX003 (ip), vehicle: acid diluted with saline
  survivor count: 8 of 8
dose: 16.0 mg/kg/injection, schedule: Q04DX003 (ip), vehicle: saline
  survivor count: 8 of 8
dose: 16.0 mg/kg/injection, schedule: Q08DX002 (ip), vehicle: acid diluted with saline
  survivor count: 8 of 8
dose: 16.0 mg/kg/injection, schedule: Q08DX002 (ip), vehicle: saline
  survivor count: 8 of 8
dose: 25.0 mg/kg/injection, schedule: Q01DX009 (ip), vehicle: saline
  survivor count: 10 of 10 (2×)
